± gives the standard deviation of the averaged measurements. The entries are a selection whose mix differs from that of the whole data set.
Experiments:
Experiment in all cases: NP40-soluble protein abundance relative to vehicle (solubility fold change) (ratio); higher = more soluble protein in presence of AMP-PNP
[1] = molecular target: T1, UniProt O75330 and related entries
T1 sequence (whole entry): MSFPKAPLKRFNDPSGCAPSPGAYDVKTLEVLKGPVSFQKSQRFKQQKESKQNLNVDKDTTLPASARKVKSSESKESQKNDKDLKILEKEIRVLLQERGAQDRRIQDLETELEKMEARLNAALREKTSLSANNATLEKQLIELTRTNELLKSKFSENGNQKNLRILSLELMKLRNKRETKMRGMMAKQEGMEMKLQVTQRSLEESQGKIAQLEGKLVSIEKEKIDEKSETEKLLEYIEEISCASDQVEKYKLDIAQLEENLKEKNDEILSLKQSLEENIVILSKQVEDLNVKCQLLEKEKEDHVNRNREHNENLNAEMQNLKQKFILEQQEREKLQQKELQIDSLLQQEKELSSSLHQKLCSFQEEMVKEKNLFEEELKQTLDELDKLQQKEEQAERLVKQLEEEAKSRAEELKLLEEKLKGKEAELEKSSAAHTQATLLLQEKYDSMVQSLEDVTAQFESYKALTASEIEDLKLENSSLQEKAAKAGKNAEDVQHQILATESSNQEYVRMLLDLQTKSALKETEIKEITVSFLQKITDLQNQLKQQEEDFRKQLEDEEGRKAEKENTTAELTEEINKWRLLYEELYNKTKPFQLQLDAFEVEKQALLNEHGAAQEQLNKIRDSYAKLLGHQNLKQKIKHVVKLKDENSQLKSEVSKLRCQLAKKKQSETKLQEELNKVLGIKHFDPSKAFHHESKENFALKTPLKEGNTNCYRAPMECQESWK
Method in brief: (§1)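 Across three independent experiments, values are fold changes against the detergent-processed vehicle for each replicate, based on vsn-normalised intensities. The samples were Jurkat crude lysate treated with eight concentrations (0.1 to 10 mM) for 10 min at room temperature and then 3 min at 37 °C. Lysate was solubilised with 0.8% NP40 and benzonase, ultracentrifuged, and the supernatant analysed by TMT-labelled LC-MS/MS.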

[2] = molecular target: T2, UniProt O75934
T2 sequence (whole entry): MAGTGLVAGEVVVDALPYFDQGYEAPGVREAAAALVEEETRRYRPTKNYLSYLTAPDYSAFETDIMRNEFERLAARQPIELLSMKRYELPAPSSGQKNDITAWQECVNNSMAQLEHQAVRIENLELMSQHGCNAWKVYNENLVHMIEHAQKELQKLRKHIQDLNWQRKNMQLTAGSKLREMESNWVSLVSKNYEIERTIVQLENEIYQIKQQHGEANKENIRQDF
Method in brief: as §1

[3] = molecular target: T3, UniProt O94864 and related entries
T3 sequence (whole entry): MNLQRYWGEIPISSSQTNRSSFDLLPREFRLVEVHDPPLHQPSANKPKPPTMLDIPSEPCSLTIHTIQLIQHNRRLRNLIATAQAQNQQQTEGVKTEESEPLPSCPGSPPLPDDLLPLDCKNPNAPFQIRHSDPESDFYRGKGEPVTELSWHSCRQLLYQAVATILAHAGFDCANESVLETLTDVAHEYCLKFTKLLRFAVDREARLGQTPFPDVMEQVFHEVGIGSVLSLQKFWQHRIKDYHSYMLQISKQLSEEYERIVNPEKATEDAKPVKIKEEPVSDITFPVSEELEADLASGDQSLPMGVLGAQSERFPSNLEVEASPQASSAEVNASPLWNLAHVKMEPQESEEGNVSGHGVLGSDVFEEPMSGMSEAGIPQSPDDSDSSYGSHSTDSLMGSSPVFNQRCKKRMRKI
Method in brief: as §1

[4] = molecular target: T4, UniProt O95294 and related entries
T4 sequence (whole entry): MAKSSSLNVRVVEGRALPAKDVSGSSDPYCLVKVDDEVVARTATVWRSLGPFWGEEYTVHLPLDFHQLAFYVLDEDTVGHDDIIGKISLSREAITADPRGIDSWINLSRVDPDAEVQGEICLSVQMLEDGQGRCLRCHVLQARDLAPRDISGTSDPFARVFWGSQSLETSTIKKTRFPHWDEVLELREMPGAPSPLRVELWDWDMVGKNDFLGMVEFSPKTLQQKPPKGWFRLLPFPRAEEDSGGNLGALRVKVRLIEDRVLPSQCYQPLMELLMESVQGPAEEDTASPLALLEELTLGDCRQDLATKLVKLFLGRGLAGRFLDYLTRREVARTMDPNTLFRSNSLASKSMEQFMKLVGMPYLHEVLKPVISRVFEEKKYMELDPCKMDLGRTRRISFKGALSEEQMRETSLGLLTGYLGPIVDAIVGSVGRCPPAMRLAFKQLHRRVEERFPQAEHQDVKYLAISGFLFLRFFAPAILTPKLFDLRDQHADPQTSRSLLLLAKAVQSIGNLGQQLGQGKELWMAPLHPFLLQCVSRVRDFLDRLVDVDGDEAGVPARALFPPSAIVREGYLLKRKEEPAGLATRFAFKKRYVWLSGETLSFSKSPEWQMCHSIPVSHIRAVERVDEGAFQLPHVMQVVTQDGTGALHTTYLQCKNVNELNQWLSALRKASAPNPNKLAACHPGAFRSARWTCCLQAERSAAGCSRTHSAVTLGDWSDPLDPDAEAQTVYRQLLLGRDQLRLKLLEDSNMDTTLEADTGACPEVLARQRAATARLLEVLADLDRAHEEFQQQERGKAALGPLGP
Method in brief: as §1

[5] = molecular target: T5, UniProt O95379-3|O95379-4
T5 sequence (whole entry): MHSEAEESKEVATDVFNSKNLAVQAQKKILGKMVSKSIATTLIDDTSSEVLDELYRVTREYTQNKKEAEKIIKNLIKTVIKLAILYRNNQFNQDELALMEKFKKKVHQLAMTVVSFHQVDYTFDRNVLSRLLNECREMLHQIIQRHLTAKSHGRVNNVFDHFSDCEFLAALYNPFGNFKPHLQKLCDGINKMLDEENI
Method in brief: as §1

Nc1ncnc2c1ncn2[C@@H]1O[C@H](COP(=O)(O)OP(=O)(O)NP(=O)(O)O)[C@@H](O)[C@H]1O [adenylyl imidodiphosphate]
NP40-soluble protein abundance ([1]; concentration: 1mM): 1.02 ± 0.019
NP40-soluble protein abundance ([1]; concentration: 2mM): 1.06 ± 0.06
NP40-soluble protein abundance ([1]; concentration: 4mM): 1.03 ± 0.032
NP40-soluble protein abundance ([1]; concentration: 6mM): 0.983 ± 0.017
NP40-soluble protein abundance ([1]; concentration: 8mM): 0.991 ± 0.019
NP40-soluble protein abundance ([1]; concentration: 10mM): 0.996 ± 0.035
NP40-soluble protein abundance ([2]; concentration: 1mM): 1.03 ± 0.012
NP40-soluble protein abundance ([2]; concentration: 2mM): 1.08 ± 0.036
NP40-soluble protein abundance ([2]; concentration: 4mM): 1.04 ± 0.042
NP40-soluble protein abundance ([2]; concentration: 6mM): 1.03 ± 0.033
NP40-soluble protein abundance ([2]; concentration: 8mM): 1.06 ± 0.025
NP40-soluble protein abundance ([2]; concentration: 10mM): 1.07 ± 0.044
NP40-soluble protein abundance ([3]; concentration: 1mM): 1.01 ± 0.018
NP40-soluble protein abundance ([3]; concentration: 2mM): 1.04 ± 0.078
NP40-soluble protein abundance ([3]; concentration: 4mM): 0.984 ± 0.046
NP40-soluble protein abundance ([3]; concentration: 6mM): 0.961 ± 0.013
NP40-soluble protein abundance ([3]; concentration: 8mM): 0.9073 ± 0.0015
NP40-soluble protein abundance ([3]; concentration: 10mM): 0.946 ± 0.028
NP40-soluble protein abundance ([4]; concentration: 1mM): 0.993 ± 0.012
NP40-soluble protein abundance ([4]; concentration: 2mM): 0.968 ± 0.016
NP40-soluble protein abundance ([4]; concentration: 4mM): 0.981 ± 0.026
NP40-soluble protein abundance ([4]; concentration: 6mM): 0.9983 ± 0.0097
NP40-soluble protein abundance ([4]; concentration: 8mM): 0.987 ± 0.031
NP40-soluble protein abundance ([4]; concentration: 10mM): 0.9558 ± 0.0046
NP40-soluble protein abundance ([5]; concentration: 1mM): 1.02 ± 0.024
NP40-soluble protein abundance ([5]; concentration: 2mM): 1.04 ± 0.1
NP40-soluble protein abundance ([5]; concentration: 4mM): 0.994 ± 0.041
